PubChem BioAssay AID504791 | Drosophila RNAi Screening Center – 2011

Screen: 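Genes of the fly required for silencing by miRNA, siRNA or endo-siRNA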 (primary screen)
Cells: Drosophila S2-derived reporter cells
Reagent: long dsRNA against Drosophila genes, about 150-250 ng dsRNA per well (siRNA assay); about 80-120 ng (miRNA assay)
Duration: about 5 days (siRNA assay); about 4 days (miRNA assay)
Conditions: copper sulfate induction of reporters: 25 µM (siRNA assay); 200 mM stated (miRNA assay), 1-2 days before reading
Read-out: 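Dual luciferase assay: Renilla to firefly signal ratio in each well, scaled to the mean ratio of its plate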
Call rule: 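First-pass picks had plate-scaled ratios over 1.5 for the siRNA assay, over 1.6 for the miRNA assay, or under 0.6; two distinct dsRNAs had to score alike on retest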
In all, the deposit lists about 23,000 reagents; this is an unselected part of those that have a named target and a result. In the full data, 199 (0.86%) are marked active. 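Plate-scaled ratios behind the calls are not deposited; printed light signals are raw; many rows marked increased or decreased are still called inactive.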 Names joined by + are all predicted targets of the reagent. Not given: the direction of the score.

| Target gene | DRSC id | stable siRNA reporter change | miRNA reporter change | stable assay Renilla, run 1 (luminescence) | stable assay firefly, run 1 (luminescence) | call |
| --- | --- | --- | --- | --- | --- | --- |
| PPO2 | DRSC07102 | – | – | 8102 | 3.68e5 | inactive |
| CG7460 | DRSC10850 | – | – | 8418 | 4.63e5 | inactive |
| Mst85C | DRSC16746 | – | – | 7496 | 5.28e5 | inactive |
| Gr89a | DRSC15023 | – | – | 8454 | 5.93e5 | inactive |
| CG5662 | DRSC19957 | – | – | 4571 | 3.94e5 | inactive |
| mdu | DRSC19860 | – | – | 4007 | 4.09e5 | inactive |
| mdu | DRSC23192 | – | – | 2703 | 2.47e5 | inactive |
| mdu | DRSC28604 | – | reporter ratio lowered past the hit cutoff | – | – | inactive |
| AP-1-2beta | DRSC19336 | – | – | 7736 | 5.11e5 | inactive |
| RhoGAP71E | DRSC10232 | – | – | 10574 | 3.85e5 | inactive |
| RhoGAP71E | DRSC10837 | – | – | 7558 | 4.84e5 | inactive |
| RhoGAP71E | DRSC10838 | reporter ratio lowered past the hit cutoff | – | 6722 | 5.85e5 | inactive |
| goe | DRSC19345 | – | – | 6103 | 4.50e5 | inactive |
| CG7991 | DRSC08609 | – | – | 5607 | 3.03e5 | inactive |
| CG1309 | DRSC08302 | – | – | 7595 | 3.47e5 | inactive |
| Cyp4d21 | DRSC03305 | – | – | 2.03e5 | 1.14e5 | inactive |
| CdGAPr | DRSC03289 | – | – | 6838 | 5.70e5 | inactive |
| spin | DRSC07176 | – | – | 4663 | 3.91e5 | inactive |
| spin | DRSC22271 | – | – | 9771 | 6.41e5 | inactive |
| CG13566 | DRSC04203 | – | – | 5068 | 3.15e5 | inactive |
| CG7848 | DRSC07050 | – | – | 5984 | 3.26e5 | inactive |
| CG5196 | DRSC15735 | – | – | 6779 | 3.60e5 | inactive |
| CCT3 | DRSC16602 | – | – | 7818 | 2.42e5 | inactive |
| CG3704 | DRSC18174 | – | – | 6063 | 3.60e5 | inactive |
| CG3704 | DRSC18645 | – | – | 5619 | 3.12e5 | inactive |
| OXA1L | DRSC09672 | – | – | 7803 | 4.42e5 | inactive |
| TTLL5 | DRSC14181 | – | – | 10246 | 3.91e5 | inactive |
| Ada | DRSC14463 | – | – | 5734 | 3.69e5 | inactive |
| CG12460 (retired record) | DRSC20970 | – | – | 6411 | 4.97e5 | inactive |
| CG18853 | DRSC06795 | – | – | 6551 | 5.08e5 | inactive |
| CG10132 | DRSC02013 | – | – | 45791 | 1.08e6 | inactive |
| PolrMT | DRSC00660 | – | – | 2.62e5 | 1.23e5 | inactive |
| CG12009 | DRSC08217 | – | – | 8067 | 4.57e5 | inactive |
| lectin-37Da | DRSC03278 | – | – | 4631 | 3.46e5 | inactive |
| lectin-37Da | DRSC22729 | – | – | 4576 | 6.14e5 | inactive |
| CG6695 | DRSC16098 | – | – | 8788 | 3.04e5 | inactive |
| Pdi | DRSC11250 | – | – | 7807 | 3.28e5 | inactive |
| CG3760 | DRSC04415 | – | – | 2576 | 2.39e5 | inactive |
| CG14687 | DRSC14910 | – | – | 4975 | 4.58e5 | inactive |
| Oseg6 | DRSC06066 | – | – | 6387 | 3.49e5 | inactive |
| CG8907 | DRSC16453 | – | – | 8491 | 3.40e5 | inactive |
| CanB | DRSC18449 | – | – | 5411 | 3.28e5 | inactive |
| Mal-B2 | DRSC02417 | – | – | 3219 | 3.85e5 | inactive |
| CG31548 | DRSC22640 | – | – | 5328 | 5.56e5 | inactive |

Look-ups from above.
For “call”, mdu [DRSC28604] has inactive
Mst85C [DRSC16746], stable assay Renilla, run 1 (luminescence): 7496
Entry of CG5662 [DRSC19957] under “stable assay Renilla, run 1 (luminescence)”: 4571
For “stable assay firefly, run 1 (luminescence)”, mdu [DRSC23192] has 2.47e5
mdu [DRSC19860], stable assay Renilla, run 1 (luminescence) = 4007
Value of Gr89a [DRSC15023] under “stable assay Renilla, run 1 (luminescence)”: 8454

The list goes on.
| Target gene | DRSC id | stable siRNA reporter change | miRNA reporter change | stable assay Renilla, run 1 (luminescence) | stable assay firefly, run 1 (luminescence) | call |
| --- | --- | --- | --- | --- | --- | --- |
| CG6465 | DRSC16046 | – | – | 6955 | 3.72e5 | inactive |
| CRIF | DRSC11811 | – | – | 8305 | 5.45e5 | inactive |
| CG4229 | DRSC10407 | – | – | 10150 | 5.58e5 | inactive |
| CG14650 | DRSC12236 | – | – | 4167 | 5.09e5 | inactive |
| CG9727 | DRSC12585 | – | – | 7364 | 3.72e5 | inactive |
| Naxd | DRSC09722 | – | – | 9140 | 2.78e5 | inactive |
| CG8607 | DRSC11012 | – | – | 6830 | 3.93e5 | inactive |
| velo | DRSC08841 | – | – | 2759 | 1.67e5 | inactive |
| velo | DRSC09698 | – | – | 5259 | 3.23e5 | inactive |
| CG15831 (retired record) | DRSC20816 | – | – | 5559 | 3.53e5 | inactive |
| CNT1 | DRSC06082 | – | – | 5896 | 2.69e5 | inactive |
| BomT2 | DRSC06631 | – | – | 6763 | 3.72e5 | inactive |
| Syx7 | DRSC11763 | – | – | 9740 | 3.94e5 | inactive |
| CG10343 | DRSC02041 | – | – | 7026 | 5.97e5 | inactive |
| Gem2 | DRSC09721 | – | – | 7258 | 2.20e5 | inactive |
| Arp3 | DRSC09669 | – | – | 8974 | 4.69e5 | inactive |
| Sgs5bis | DRSC16263 | – | – | 6596 | 4.52e5 | inactive |
| alphaTub84B | DRSC12622 | – | – | 8243 | 4.52e5 | inactive |
| Sbds | DRSC10992 | – | – | 8051 | 4.97e5 | inactive |
| l(3)80Fg | DRSC21645 | – | – | 9306 | 4.50e5 | inactive |
| l(3)80Fg | DRSC22171 | – | – | 9684 | 5.06e5 | inactive |
| Dhc36C | DRSC03315 | – | – | 6979 | 3.42e5 | inactive |
| CG5087 | DRSC10479 | – | – | 6292 | 4.01e5 | inactive |
| beat-IIb | DRSC13219 | – | – | 3456 | 3.71e5 | inactive |
| beat-IIb | DRSC14816 | – | – | 7832 | 4.70e5 | inactive |
| beat-IIb | DRSC15546 | – | – | 8622 | 6.21e5 | inactive |
| CG13634 | DRSC14635 | – | – | 6619 | 3.31e5 | inactive |
| CG1544 | DRSC15036 | – | – | 8043 | 6.05e5 | inactive |
| Ddc | DRSC03314 | – | – | 6407 | 3.18e5 | inactive |
| BBS9 | DRSC04257 | – | – | 7522 | 5.83e5 | inactive |
| Hsp67Bc | DRSC11193 | – | – | 7336 | 4.57e5 | inactive |
| MED27 | DRSC12205 | – | – | 6272 | 4.55e5 | inactive |
| CG9328 | DRSC03203 | – | reporter ratio lowered past the hit cutoff | 7499 | 1.36e6 | inactive |
| Spn28Da | DRSC02162 | – | – | 6566 | 3.59e5 | inactive |
| CG7236 | DRSC03037 | – | – | 6791 | 3.73e5 | inactive |
| CG8072 | DRSC10960 | – | – | 6575 | 3.80e5 | inactive |
| CG14538 (retired record) | DRSC02396 | – | – | 7378 | 4.65e5 | inactive |
| CG14538 (retired record) | DRSC29424 | – | reporter ratio lowered past the hit cutoff | – | – | inactive |
| Ak1 | DRSC10248 | – | – | 6099 | 4.75e5 | inactive |
| KP78a + KP78b | DRSC16721 | – | – | 6867 | 3.55e5 | inactive |
| KP78a + KP78b | DRSC16722 | – | – | 6218 | 3.32e5 | inactive |
| Ythdf | DRSC16036 | – | – | 5812 | 2.44e5 | inactive |
| Ythdf | DRSC16037 | – | – | 6287 | 2.73e5 | inactive |
| UQCR-14L | DRSC15288 | – | – | 5682 | 3.68e5 | inactive |
| UQCR-14L | DRSC22425 | – | – | 4799 | 3.01e5 | inactive |
| fln | DRSC11346 | – | – | 7591 | 3.16e5 | inactive |
| Rchy1 | DRSC02542 | – | – | 6280 | 3.53e5 | inactive |
| Rchy1 | DRSC23118 | reporter ratio raised past the hit cutoff | – | 3795 | 1.27e5 | inactive |
| Slob | DRSC02296 | – | – | 7634 | 5.30e5 | inactive |
| Skp2 | DRSC12329 | reporter ratio lowered past the hit cutoff | – | 6894 | 5.16e5 | active |
| Skp2 | DRSC28203 | – | reporter ratio lowered past the hit cutoff | – | – | active |
| CG15880 | DRSC00474 | – | – | 7310 | 3.78e5 | inactive |
| ey | DRSC17173 | – | – | 6519 | 3.59e5 | inactive |
| CG10265 | DRSC05986 | – | – | 8439 | 5.69e5 | inactive |
| CG10265 | DRSC21680 | – | – | 9602 | 5.65e5 | inactive |
| RNASEK | DRSC21641 | – | – | 9866 | 4.63e5 | inactive |
| CG5890 | DRSC15909 | – | – | 7134 | 3.56e5 | inactive |
| Stam | DRSC03444 | – | – | 11820 | 5.72e5 | inactive |
| Arv1 | DRSC11491 | – | – | 5443 | 3.31e5 | inactive |
| CG5846 | DRSC02904 | – | – | 7418 | 2.20e5 | inactive |
| CG10470 | DRSC02061 | – | – | 6814 | 3.61e5 | inactive |
| Syx16 | DRSC20507 | – | – | 8938 | 4.90e5 | inactive |
